The record followed here is PubChem BioAssay AID328 (DTP/NCI, 2004).

The assay has as its system BDF1 mice, P388 leukemia ip, median survival T/C. In words: NCI In Vivo Anticancer Drug Screen. Data for tumor model P388 Leukemia (intraperitoneal) in B6D2F1 (BDF1) mice. The following applies: T/C endpoint: median survival time, higher T/C = longer survival. Summed up: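 T/C = treated-group survival ÷ vehicle-control survival; tumour transplanted into mice before dosing.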

Where [1] appears, read: dose: 50.0 mg/kg/injection, schedule: Q01DX009 (ip), vehicle: saline with Tween-80.
The mark [2] stands for this setting: dose: 50.0 mg/kg/injection, schedule: Q04DX003 (ip), vehicle: saline with Tween-80.
Where [3] appears, read: dose: 100.0 mg/kg/injection, schedule: Q04DX003 (ip), vehicle: saline with Tween-80.
[4] abbreviates: dose: 200.0 mg/kg/injection, schedule: Q04DX003 (ip), vehicle: saline with Tween-80.
The mark [5] stands for this setting: dose: 200.0 mg/kg/injection, schedule: Q01DX009 (ip), vehicle: saline.
Setting [6] is: dose: 50.0 mg/kg/injection, schedule: Q01DX001 (ip), vehicle: Klucel (hydroxypropylcellulose) (HPC).
[7] abbreviates: dose: 100.0 mg/kg/injection, schedule: Q01DX009 (ip), vehicle: saline.
The mark [8] stands for this setting: dose: 400.0 mg/kg/injection, schedule: Q01DX009 (ip), vehicle: saline with Tween-80.
The mark [9] stands for this setting: dose: 12.5 mg/kg/injection, schedule: Q01DX009 (ip), vehicle: saline with Tween-80.
The mark [10] stands for this setting: dose: 25.0 mg/kg/injection, schedule: Q01DX009 (ip), vehicle: saline with Tween-80.
Setting [11] is: dose: 100.0 mg/kg/injection, schedule: Q01DX009 (ip), vehicle: saline with Tween-80.
The mark [12] stands for this setting: dose: 200.0 mg/kg/injection, schedule: Q01DX009 (ip), vehicle: saline with Tween-80.
Where [13] appears, read: dose: 200.0 mg/kg/injection, schedule: Q04DX002 (ip), vehicle: saline with Tween-80.

SMILES strings stand for the structures. The list shows only some results of the screen, not a fair sample: it is rich in T/C values a quarter to a half above the control, in often repeated tests (any T/C) and in doses without a T/C. Other doses and runs of a compound stand elsewhere. T/C gives the treated animals as a percentage of the vehicle group. Some entries give survivors of the animals treated and no T/C: the source files T/C as zero there, which appears to mark a toxic dose or a test without result, not a measured value. Some doses without a T/C left all or most animals alive at the check, yet need not have been tolerated: survival well below the control is almost never listed, so the zero probably covers shortened survival too. Counts of survivors are from the toxicity check (mostly the fifth day) where no day follows; animals may have died later. Schedules are NCI's codes, taken here to give the interval after Q, in days (D) or hours (H), and the number of doses after X. Some molecules as drawn cover several salts, stereoisomers or complexes of the source; a dose is that of the sample tested. Some entries hold several experiments; the values are given in rising order. Where survival is the endpoint, the PubChem record calls one and a half times the control and up active, and a quarter to a half above the control has no call in these data; cut-offs in other NCI protocols can differ. Counts like (3×) count equal records among those shown. Some T/C values carry the count of animals alive at the toxicity check (mostly the fifth day); without a count, all were alive then.

On to `O=[N+]([O-])c1ccc(/C=N/c2ncc(Br)s2)o1`, for which the T/C runs as follows: under setting [1], 125 % of control; under setting [2], 127 % of control (2×); under setting [3], 136 % of control. The survivor count under setting [2] was 5 of 6; the survivor count under setting [3] is 1 of 6; the survivor count under setting [4] was 0 of 6 and 3 of 6.

Turning to `CCCCCCCCCCCCCCCCC(C(=O)O)C(O)(CC(=O)O)C(=O)O` (stereo unspecified), the survivor count (dose: 100.0 mg/kg/injection, schedule: Q01DX010 (ip), vehicle: saline) is recorded as 1 of 6.

For the compound `CCOC(=O)CC1=NN=C(N)SC1`, the T/C (dose: 50.0 mg/kg/injection, schedule: Q01DX009 (ip), vehicle: saline) was 128 % of control. Under setting [5], the survivor count was 4 of 6.

In the case of `Nc1nc(=S)c2[nH]c(N=Nc3ccc(S(=O)(=O)Nc4nccs4)cc3)nc2[nH]1`, the T/C is 130 % of control (dose: 12.5 mg/kg/injection, schedule: Q01DX001 (ip), vehicle: Klucel (hydroxypropylcellulose) (HPC)) and 147 % of control under setting [6].

On to `C=CCSc1nc(N)nc2c1ncn2C1CC(O)C(CO)O1` (stereo unspecified), for which the T/C is 125 % of control [5 of 6 alive] under setting [7]; 131 % of control (dose: 400.0 mg/kg/injection, schedule: Q04DX003 (ip), vehicle: saline); 140 % of control (dose: 600.0 mg/kg/injection, schedule: Q04DX003 (ip), vehicle: saline). Further, the survivor count is listed as 6 of 6 (dose: 100.0 mg/kg/injection, schedule: Q04DX003 (ip), vehicle: saline); 6 of 6 under setting [5]; 5 of 6 under setting [8]; 5 of 6 (dose: 400.0 mg/kg/injection, schedule: Q01DX009 (ip), vehicle: saline).

Take `CN=S(=O)(OCCCCOS(=O)(=NC)c1ccc(C)cc1)c1ccc(C)cc1` (stereo unspecified): the T/C reads like this: under setting [3], 125 % of control; under setting [4], 139 % of control.

Regarding `CCC1=C2C(=O)c3ccccc3C2=C(C)S(=O)(=O)O1`, the T/C runs as follows: under setting [9], 136 % of control; under setting [10], 127 % of control; under setting [2], 127 % of control; under setting [3], 133 % of control [5 of 6 alive]; under setting [4], 127 % of control. The survivor count by setting is: under setting [1], 4 of 6; under setting [11], 0 of 6; under setting [12], 0 of 6.

Turning to `Oc1cccnc1CN1CCCCC1`, the survivor count is given as 2 of 6 (dose: 25.0 mg/kg/injection, schedule: Q01DX009 (ip), vehicle: saline) and 4 of 6 under setting [7].

In the case of `CCOc1ccc(Br)cc1/C=N\N=C\c1cc(Br)ccc1OCC`, the survivor count (dose: 25.0 mg/kg/injection, schedule: Q01DX001 (ip), vehicle: Klucel (hydroxypropylcellulose) (HPC)) was 6 of 6; the survivor count under setting [6] is reported as 6 of 6; the survivor count (dose: 100.0 mg/kg/injection, schedule: Q01DX001 (ip), vehicle: Klucel (hydroxypropylcellulose) (HPC)) is listed as 5 of 6.

As to `O=C(O)CCSSCCC(=O)O`, for the setting “dose: 50.0 mg/kg/injection, schedule: Q04DX003 (ip), vehicle: Klucel (hydroxypropylcellulose) (HPC)”, the T/C was 125 % of control.

With `C=CCSc1nc2ccccc2c(=O)n1-c1cc(OC)c(Cl)cc1OC`, under “dose: 200.0 mg/kg/injection, schedule: Q01DX009 (ip), vehicle: Klucel (hydroxypropylcellulose) (HPC)”, the survivor count was 6 of 6.

Consider `O=C(C[n+]1ccccc1)N/N=C/c1ccc(O)c(O)c1`, for which the survivor count under setting [8] is 0 of 6 and the survivor count (dose: 400.0 mg/kg/injection, schedule: Q04DX003 (ip), vehicle: saline with Tween-80) is 2 of 6.

For the compound `COc1cc(N/C(N)=N\C(N)=NC(C)C)cc(OC)c1OC`, the survivor count is 5 of 6 (dose: 200.0 mg/kg/injection, schedule: Q04DX003 (ip), vehicle: saline sonified) and 0 of 6 (dose: 400.0 mg/kg/injection, schedule: Q04DX003 (ip), vehicle: saline sonified).

As for `CC(=O)OCCC/C(=C\c1ccc2ccccc2c1)[N+](=O)[O-]`, the survivor count (dose: 400.0 mg/kg/injection, schedule: Q01DX009 (ip), vehicle: Klucel (hydroxypropylcellulose) (HPC)) is recorded as 6 of 6.

`ClCCn1cnc2c(SCc3ccccc3Cl)ncnc21`: the survivor count under setting [4] is listed as 6 of 6.

Turning to `CC(C)c1ccc([C](C)(CC(C)(C)C)[Sn]([CH3])([CH3])[CH3])cc1` (stereo unspecified), the survivor count (dose: 100.0 mg/kg/injection, schedule: Q04DX003 (ip), vehicle: Klucel (hydroxypropylcellulose) (HPC)) is on record as 0 of 6; the survivor count (dose: 200.0 mg/kg/injection, schedule: Q04DX003 (ip), vehicle: Klucel (hydroxypropylcellulose) (HPC)) is 0 of 6; the survivor count (dose: 400.0 mg/kg/injection, schedule: Q04DX003 (ip), vehicle: Klucel (hydroxypropylcellulose) (HPC)) is 0 of 6.

For the compound `CCOC(=O)c1[nH]c2cccc3c2c1CC(Br)C3=O` (stereo unspecified), the T/C (dose: 25.0 mg/kg/injection, schedule: Q04DX002 (ip), vehicle: saline with Tween-80) is 126 % of control; the T/C (dose: 50.0 mg/kg/injection, schedule: Q04DX002 (ip), vehicle: saline with Tween-80) was 128 % of control; the T/C (dose: 100.0 mg/kg/injection, schedule: Q04DX002 (ip), vehicle: saline with Tween-80) is 125 and 132 % of control; the T/C under setting [13] is 141 % of control. Further, the survivor count is, setting by setting: under setting [13], 5 of 6; (dose: 400.0 mg/kg/injection, schedule: Q04DX002 (ip), vehicle: saline with Tween-80) 1 of 6.

With `C[CH2][Ge]([CH2]C)[CH2]C.C[CH2][Ge]([CH2]C)[CH2]C.C[CH2][Ge]([CH2]C)[O][Ge]([CH2]C)[CH2]C`, under setting [11], the T/C was 132 % of control. In addition, under setting [12], the T/C was 141 % of control and the survivor count is on record as 5 of 6.

For `Nc1nc(N)c2c(n1)CCC(S(=O)(=O)c1ccc3ccccc3c1)C2` (stereo unspecified), the T/C is, setting by setting: under setting [12], 140 % of control; under setting [8], 134 % of control [5 of 6 alive].

As to `COC(=O)C(Cc1ccc(N(CCCl)CCCl)cc1)N=NNc1nc[nH]c1C(N)=O` (stereo unspecified), the survivor count is 6 of 6 under setting [9]; 6 of 6 under setting [10]; 6 of 6 under setting [1]; 6 of 6 (dose: 75.0 mg/kg/injection, schedule: Q04DX003 (ip), vehicle: saline). Also, the T/C (dose: 21.0 mg/kg/injection, schedule: Q04DX003 (ip), vehicle: saline) is 145 % of control.

Consider `Nc1nc(Cl)c(C=O)c(Cl)n1`, for which, under setting [11], the T/C was 148 % of control [5 of 6 alive]. Moreover, the survivor count under setting [12] is reported as 5 of 6.

Consider `CCCCOc1ccc(NC(N)=Nc2ccc(Cl)cc2)cc1`, for which the survivor count is on record as 6 of 6 (dose: 6.25 mg/kg/injection, schedule: Q01DX010 (ip), vehicle: carboxymethylcellulose (CMC)); 0 of 6 (dose: 100.0 mg/kg/injection, schedule: Q01DX010 (ip), vehicle: carboxymethylcellulose (CMC)); 0 of 6 under setting [3]; 0 of 6 (dose: 200.0 mg/kg/injection, schedule: Q01DX010 (ip), vehicle: carboxymethylcellulose (CMC)).

`O=CNc1ccc(/C=C\c2ccnc3ccccc23)cc1`: under setting [9], the T/C is 133 % of control. Besides, the survivor count under setting [1] is 5 of 6.

For the compound `COC(=O)C(Br)C(Br)c1ccccc1` (stereo unspecified), the T/C under setting [12] is 127 % of control.

As to `Nc1nc(SN=Nc2ccc(S(N)(=O)=O)cc2)c2[nH]cnc2n1`, the survivor count (dose: 30.0 mg/kg/injection, schedule: Q01DX009 (ip), vehicle: saline with Tween-80) was 6 of 6.

Regarding `O=[N+]([O-])C(CO)(CO)CC(F)(F)F`, where the note is “dose: 1.56 mg/kg/injection, schedule: Q04DX003 (ip), vehicle: saline”, the survivor count was 6 of 6.
